Like-named read-outs stand apart in the source and are kept apart here. Some of these results come from one statement about several compounds together.
Assay: Alkylation of 4-(4-nitrobenzyl)pyridine, absorbance at 540 nm (modified Wheeler and Chumley)
Description: Since compounds 1-13 were conceived as prodrugs of the alkylating species (II), representative compounds of this class, viz. 1-6, 8 and 10 were tested for alkylating ability using a modification of the method of Wheeler and Chumley. This method measured the absorbance at 540 nm of the alkylated product of 4-(4-nitrobenzyl)pyridine.
^a A solution of the test sample (12 micromoles) in 1 ml of acetone,
ml of distilled water and 1 ml of TrisHCl buffer (pH 7.4) was incubated
with 4(4-nitrobenzyl) pyridine (148 micromoles in 0.4 ml of acetone) for
hr at 37°C. Following additon of 2 ml of acetone and 1.5 ml of 0.2
M NaOH, the material was extracted with 5 ml of ethyl acetate. The
absorbance was determined at 540 nm 30 seconds after the addition of the
sodium hydroxide solution. The greater the absorbance value, the greater
the degree of alkylation
^b Relative Alkylating activity = (O.D. for test sample/O.D. for […]

Structure (SMILES) | alkylating activity / absorbance (in words) | alkylating activity / absorbance (in words) (listed as compound 4)
Cc1ccc(S(=O)(=O)N(C)NS(=O)(=O)c2ccccc2)cc1 [Compound 1, N'-benzenesulfonyl-N-methyl-N-(p-toluenesulfonyl)hydrazine] | decompose in solution to generate species capable of alkylating nucleophiles | –
COc1ccc(S(=O)(=O)NN(C)S(=O)(=O)c2ccc(C)cc2)cc1 [Compound 2, N'-(p-methoxybenzenesulfonyl)-N-methyl-N-(p-toluenesulfonyl)hydrazine] | decompose in solution to generate species capable of alkylating nucleophiles | –
Cc1ccc(S(=O)(=O)N(C)NS(=O)(=O)c2ccc(Cl)cc2)cc1 [Compound 3, N'-(p-chlorobenzenesulfonyl)-N-methyl-N-(p-toluenesulfonyl)hydrazine] | decompose in solution to generate species capable of alkylating nucleophiles | –
COc1ccc(S(=O)(=O)N(C)NS(=O)(=O)c2ccc(C)cc2)cc1 [Compound 4] | – | decompose in solution to generate species capable of alkylating nucleophiles
Cc1ccc(S(=O)(=O)NN(C)S(=O)(=O)c2ccc(Cl)cc2)cc1 [Compound 5, N-(p-chlorobenzenesulfonyl)-N-methyl-N'-(p-toluenesulfonyl)hydrazine] | decompose in solution to generate species capable of alkylating nucleophiles | –
Cc1ccc(S(=O)(=O)N(C)NS(=O)(=O)Cc2ccccc2)cc1 [Compound 6, N'-benzylsulfonyl-N-methyl-N-(p-toluenesulfonyl)hydrazine] | decompose in solution to generate species capable of alkylating nucleophiles | –
Cc1ccc(S(=O)(=O)NN(C)S(=O)(=O)c2ccc(C)cc2)cc1 [Compound 8, N,N'-bis (4-toluenesulfonyl)-N-methylhydrazine] | decompose in solution to generate species capable of alkylating nucleophiles | –

Reference: patent US4892887A, “N,N'-bis(sulfonyl)hydrazines having antineoplastic activity” (Yale University, priority 1988, dated 1990)
